{"source": "the supplement of paper PMC8728848", "binders": {"B1": {"name": "DC-Sign-R (Homo sapiens), Q9H2X3 (protein)", "chain": "MSDSKEPRVQQLGLLEEDPTTSGIRLFPRDFQFQQIHGHKSSTGCLGHGALVLQLLSFMLLAGVLVAILVQVSKVPSSLSQEQSEQDAIYQNLTQLKAAVGELSEKSKLQEIYQELTQLKAAVGELPEKSKLQEIYQELTRLKAAVGELPEKSKLQEIYQELTRLKAAVGELPEKSKLQEIYQELTRLKAAVGELPEKSKLQEIYQELTELKAAVGELPEKSKLQEIYQELTQLKAAVGELPDQSKQQQIYQELTDLKTAFERLCRHCPKDWTFFQGNCYFMSNSQRNWHDSVTACQEVRAQLVVIKTAEEQNFLQLQTSRSNRFSWMGLSDLNQEGTWQWVDGSPLSPSFQRYWNSGEPNNSGNEDCAEFSGSGWNDNRCDVDNYWICKKPAACFRDE"}}, "assay_in_all_cases": "glycan array binding signal (z-score within array); higher = stronger binding", "conditions_in_all_cases": "glycan notation: IUPAC condensed, linker removed", "key": {"Fuc(a1-2)Gal": {"biological_target": "Fuc(a1-2)Gal", "how_it_was_run": "(§1)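 Arrays were curated from the Consortium for Functional Glycomics database, 3228 in total, and kept only where the protein sequence was available. Binding is expressed as a within-array Z-score. This score was averaged across arrays of the same protein sequence at different concentrations or buffers and across linkers, and negative values can be read as non-binding.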"}, "Fuc(a1-2)Gal(b1-3)GalNAc": {"biological_target": "Fuc(a1-2)Gal(b1-3)GalNAc", "how_it_was_run": "as §1"}, "[1]": {"biological_target": "Fuc(a1-2)Gal(b1-3)GalNAc(a1-3)[Fuc(a1-2)]Gal(b1-4)Glc", "how_it_was_run": "as §1"}, "[2]": {"biological_target": "Fuc(a1-2)Gal(b1-3)GalNAc(a1-3)[Fuc(a1-2)]Gal(b1-4)GlcNAc", "how_it_was_run": "as §1"}, "[3]": {"biological_target": "Fuc(a1-2)Gal(b1-3)GalNAc(b1-3)Gal", "how_it_was_run": "as §1"}, "[4]": {"biological_target": "Fuc(a1-2)Gal(b1-3)GalNAc(b1-3)Gal(a1-4)Gal(b1-4)Glc", "how_it_was_run": "as §1"}, "[5]": {"biological_target": "Fuc(a1-2)Gal(b1-3)GalNAc(b1-4)[Neu5Ac(a2-3)]Gal(b1-4)Glc", "how_it_was_run": "as §1"}, "Fuc(a1-2)Gal(b1-3)GlcNAc": {"biological_target": "Fuc(a1-2)Gal(b1-3)GlcNAc", "how_it_was_run": "as §1"}, "[6]": {"biological_target": "Fuc(a1-2)Gal(b1-3)GlcNAc(b1-2)Man(a1-3)[Fuc(a1-2)Gal(b1-3)GlcNAc(b1-2)Man(a1-6)]Man(b1-4)GlcNAc(b1-4)GlcNAc", "how_it_was_run": "as §1"}, "[7]": {"biological_target": "Fuc(a1-2)Gal(b1-3)GlcNAc(b1-2)Man(a1-3)[Fuc(a1-2)Gal(b1-3)GlcNAc(b1-2)Man(a1-6)]Man(b1-4)GlcNAc(b1-4)[Fuc(a1-6)]GlcNAc", "how_it_was_run": "as §1"}, "[8]": {"biological_target": "Fuc(a1-2)Gal(b1-3)GlcNAc(b1-3)Gal(b1-4)Glc", "how_it_was_run": "as §1"}, "[9]": {"biological_target": "Fuc(a1-2)Gal(b1-3)GlcNAc(b1-3)GalNAc", "how_it_was_run": "as §1"}, "[10]": {"biological_target": "Fuc(a1-2)Gal(b1-3)GlcNAc(b1-3)[Fuc(a1-2)Gal(b1-3)GlcNAc(b1-6)]GalNAc", "how_it_was_run": "as §1"}, "[11]": {"biological_target": "Fuc(a1-2)Gal(b1-3)GlcNAc(b1-3)[Gal(b1-4)GlcNAc(b1-6)]Gal(b1-4)Glc", "how_it_was_run": "as §1"}, "[12]": {"biological_target": "Fuc(a1-2)Gal(b1-3)GlcNAc(b1-3)[Neu5Ac(a2-6)Gal(b1-4)GlcNAc(b1-6)]Gal(b1-4)Glc", "how_it_was_run": "as §1"}, "[13]": {"biological_target": "Fuc(a1-2)Gal(b1-3)GlcNAc6S", "how_it_was_run": "as §1"}, "[14]": {"biological_target": "Fuc(a1-2)Gal(b1-3)[Fuc(a1-4)]GlcNAc", "how_it_was_run": "as §1"}, "[15]": {"biological_target": "Fuc(a1-2)Gal(b1-3)[Fuc(a1-4)]GlcNAc(b1-2)Man(a1-3)[Fuc(a1-2)Gal(b1-3)[Fuc(a1-4)]GlcNAc(b1-2)Man(a1-3)]Man(b1-4)GlcNAc(b1-4)GlcNAc", "how_it_was_run": "as §1"}, "[16]": {"biological_target": "Fuc(a1-2)Gal(b1-3)[Fuc(a1-4)]GlcNAc(b1-2)Man(a1-3)[Fuc(a1-2)Gal(b1-3)[Fuc(a1-4)]GlcNAc(b1-2)Man(a1-6)]Man(b1-4)GlcNAc(b1-4)[Fuc(a1-6)]GlcNAc(b1-4)[Fuc(a1-6)]GlcNAc", "how_it_was_run": "as §1"}, "[17]": {"biological_target": "Fuc(a1-2)Gal(b1-3)[Fuc(a1-4)]GlcNAc(b1-3)[Fuc(a1-3)[Gal(b1-4)]GlcNAc(b1-6)]Gal(b1-4)Glc", "how_it_was_run": "as §1"}, "[18]": {"biological_target": "Fuc(a1-2)Gal(b1-3)[Fuc(a1-4)]GlcNAc(b1-3)[Gal(b1-4)GlcNAc(b1-6)]Gal(b1-4)Glc", "how_it_was_run": "as §1"}, "[19]": {"biological_target": "Fuc(a1-2)Gal(b1-4)Fuc(a1-3)]GlcNAc(b1-2)Man(a1-3)[Fuc(a1-2)Gal(b1-4)[Fuc(a1-3)]GlcNAc(b1-2)Man(a1-6)]Man(b1-4)GlcNAc(b1-4)GlcNAc", "how_it_was_run": "as §1"}, "Fuc(a1-2)Gal(b1-4)Glc": {"biological_target": "Fuc(a1-2)Gal(b1-4)Glc", "how_it_was_run": "as §1"}, "Fuc(a1-2)Gal(b1-4)Glc6S": {"biological_target": "Fuc(a1-2)Gal(b1-4)Glc6S", "how_it_was_run": "as §1"}, "Fuc(a1-2)Gal(b1-4)GlcNAc": {"biological_target": "Fuc(a1-2)Gal(b1-4)GlcNAc", "how_it_was_run": "as §1"}, "[20]": {"biological_target": "Fuc(a1-2)Gal(b1-4)GlcNAc(b1-2)Man", "how_it_was_run": "as §1"}, "[21]": {"biological_target": "Fuc(a1-2)Gal(b1-4)GlcNAc(b1-2)Man(a1-3)[Fuc(a1-2)Gal(b1-4)GlcNAc(b1-2)Man(a1-6)]Man(b1-4)GlcNAc(b1-4)GlcNAc", "how_it_was_run": "as §1"}, "[22]": {"biological_target": "Fuc(a1-2)Gal(b1-4)GlcNAc(b1-2)Man(a1-3)[Fuc(a1-2)Gal(b1-4)GlcNAc(b1-2)Man(a1-6)]Man(b1-4)GlcNAc(b1-4)[Fuc(a1-6)]GlcNAc", "how_it_was_run": "as §1"}, "[23]": {"biological_target": "Fuc(a1-2)Gal(b1-4)GlcNAc(b1-2)[Fuc(a1-2)Gal(b1-4)GlcNAc(b1-4)]Man(a1-3)[Fuc(a1-2)Gal(b1-4)GlcNAc(b1-2)Man(a1-6)]Man(b1-4)GlcNAc(b1-4)GlcNAc", "how_it_was_run": "as §1"}, "[24]": {"biological_target": "Fuc(a1-2)Gal(b1-4)GlcNAc(b1-3)Gal(b1-4)GlcNAc", "how_it_was_run": "as §1"}}, "note": "The other results are listed elsewhere or left out."}
{"binder": "B1", "values": [{"measurement": "glycan array binding signal (z-score)", "setting": "Fuc(a1-2)Gal", "value": -0.551}, {"measurement": "glycan array binding signal (z-score)", "setting": "Fuc(a1-2)Gal(b1-3)GalNAc", "value": 0.223}, {"measurement": "glycan array binding signal (z-score)", "setting": "[1]", "value": -0.276}, {"measurement": "glycan array binding signal (z-score)", "setting": "[2]", "value": -0.447}, {"measurement": "glycan array binding signal (z-score)", "setting": "[3]", "value": -0.369}, {"measurement": "glycan array binding signal (z-score)", "setting": "[4]", "value": 0.121}, {"measurement": "glycan array binding signal (z-score)", "setting": "[5]", "value": -0.074}, {"measurement": "glycan array binding signal (z-score)", "setting": "Fuc(a1-2)Gal(b1-3)GlcNAc", "value": -0.168}, {"measurement": "glycan array binding signal (z-score)", "setting": "[6]", "value": -0.647}, {"measurement": "glycan array binding signal (z-score)", "setting": "[7]", "value": -0.795}, {"measurement": "glycan array binding signal (z-score)", "setting": "[8]", "value": -0.64}, {"measurement": "glycan array binding signal (z-score)", "setting": "[9]", "value": -0.441}, {"measurement": "glycan array binding signal (z-score)", "setting": "[10]", "value": 0.098}, {"measurement": "glycan array binding signal (z-score)", "setting": "[11]", "value": -0.694}, {"measurement": "glycan array binding signal (z-score)", "setting": "[12]", "value": 0.765}, {"measurement": "glycan array binding signal (z-score)", "setting": "[13]", "value": 0.232}, {"measurement": "glycan array binding signal (z-score)", "setting": "[14]", "value": 0.843}, {"measurement": "glycan array binding signal (z-score)", "setting": "[15]", "value": -0.001}, {"measurement": "glycan array binding signal (z-score)", "setting": "[16]", "value": -0.596}, {"measurement": "glycan array binding signal (z-score)", "setting": "[17]", "value": -0.051}, {"measurement": "glycan array binding signal (z-score)", "setting": "[18]", "value": 1.26}, {"measurement": "glycan array binding signal (z-score)", "setting": "[19]", "value": -0.341}, {"measurement": "glycan array binding signal (z-score)", "setting": "Fuc(a1-2)Gal(b1-4)Glc", "value": -0.713}, {"measurement": "glycan array binding signal (z-score)", "setting": "Fuc(a1-2)Gal(b1-4)Glc6S", "value": -0.652}, {"measurement": "glycan array binding signal (z-score)", "setting": "Fuc(a1-2)Gal(b1-4)GlcNAc", "value": -0.01}, {"measurement": "glycan array binding signal (z-score)", "setting": "[20]", "value": 1.11}, {"measurement": "glycan array binding signal (z-score)", "setting": "[21]", "value": -0.805}, {"measurement": "glycan array binding signal (z-score)", "setting": "[22]", "value": -0.884}, {"measurement": "glycan array binding signal (z-score)", "setting": "[23]", "value": -0.8}, {"measurement": "glycan array binding signal (z-score)", "setting": "[24]", "value": 0.137}]}
